Data on one molecule can be found in patent US11033572B2, “Molecular adjuvants for enhanced cytosolic delivery of active agents” (Universiteit Gent, priority 2017, dated 2021).

Holding throughout (format): cell-based
In data set [1] the test system is H1299_eGFP cells. The experiment in a line: siNG transfection and sequential adjuvant treatment, eGFP silencing by flow cytometry. The note with it: multiple 2 h treatments, stabilized siRNA, 9 days. On the technique in general: Flow cytometry measures light scatter and fluorescence of single cells or particles in a stream.
The test system of another data set is H1299_WT cells. Put plainly: Cholesterol detection with filipin. Conditions: after siNG transfection. How it is done: Following H1299_WT cell seeding, transfection and DL treatment, the cells were washed once with PBS and fixed with 4% PFA during 1 hour. After washing the samples with PBS, the remaining PFA was quenched with a 1.5 mg/mL glycine solution in PBS during 10 minutes. Next, a 0.1 mg/mL filipin solution in PBS containing 10% FBS was applied for 2 hours. Afterwards, the cells were washed once with PBS containing FBS, once with PBS and finally stored at 4° C. in Vectashield without DAPI (Vector Laboratories, USA). All steps of this labeling procedure were executed at room temperature. The samples were imaged with a LSCM and a 100× oil immersion objective following excitation with the 408 nm laser line.

The test system of data set [2] is H1299_eGFP cells. Put plainly: Cell viability following CAD incubation (CellTiter GLO). Conditions: human, 20 h. How it is done:
The silencing potential of siPLK1-NGs was established through evaluating the cell viability. Hereto, we applied the CellTiter GLO® assay (Promega, Belgium) according to the manufacturer's guidelines. Before initiating the assay, the culture plates and reconstituted assay buffer were placed at room temperature for 30 minutes. Next, the culture medium was replaced by 250 μL fresh cell medium and an equal volume of assay buffer was added. To induce complete cell lysis, the plates were shaken during 2 minutes and the signal was allowed to stabilize the following 10 minutes. 100 μL from each well was subsequently transferred to an opaque 96-well plate, which was measured with a GloMax® 96 Microplate Luminometer (Promega, Belgium). Three biological replicates were performed and data are expressed as the mean cell viability±SEM.
The H1299_eGFP cells were seeded, transfected and treated with the CADs similar to the silencing experiments. Please note that we only applied siCTRL-loaded NGs in this set of experiments. With the interest of evaluating the possible effect of our treatment on cell viability, the CellTiter GLO® assay was performed as described above. Again, three biological replicates were performed and data are expressed as the mean±SEM.
(In ATP-based viability assays light output follows the ATP content of the culture.)

Each structure is given as a SMILES string.

Turning to `Clc1ccc2c(c1)CCc1cccnc1C2=C1CCNCC1` [(3) Desloratadine, Desloratadine], in the data set on H1299_eGFP cells [1], the “kinetics of eGFP silencing” value was “maintain the eGFP silencing over a prolonged period of time”. Moreover, the “cholesterol (filipin) signal area relative to total cell area” value with H1299_WT cells is “an increase in the signal area relative to the total cell area”. In addition, the “concentration with significant additional cytotoxicity compared to siNGs alone” value in the data set with H1299_eGFP cells [2] amounted to 40 µM.
